In publication PMC12040169 (PLOS Biology, 2025):
The list shows a part of the results.

Tested on: T1, CTL2-GFP (C. trachomatis L2/434/Bu, GFP-expressing)
T1 construct: L2/434/Bu, GFP-expressing
Parameters: species or system HeLa; Intracellular C. trachomatis growth in HeLa cells, bulk GFP fluorescence relative to DMSO
Settings: bulk GFP, single well; 28.5 h, 10 µM; inhibitor

SMILES	% of control remaining
CCCNC(=O)c1ccc(C)c(NC(=O)N[C@@H]2C[C@@H](CO)N(C)C2)c1 [CBK307451]	136.442%
CCn1c(CC2CCN(C(=O)CCCn3cnnn3)CC2)nn(C)c1=O [CBK306537]	75.0661%
O=C(Nc1cccc(N2CCNCC2)c1)c1coc2c1C(=O)CCC2 [CBK034113T]	109.576%
CCC1=NC(c2ccccc2Cl)N(O)C1(C)C (stereo not shown) [CBK026466]	139.578%
CC(NC(=O)N1CCSCC1)c1ccc2c(c1)CC(=O)N2 (stereo not shown) [CBK305093]	111.412%
Cc1csc(C(Cc2ccsc2)NC(=O)C2CC2C)n1 (stereo not shown) [CBK282226]	119.415%
N#Cc1cc2c(=O)n(-c3ccccn3)ccc2[nH]c1=O [CBK288119]	127.07%
NC(Cc1ccc(Cl)cc1)C(=O)N(CCc1cc(C(F)(F)F)cc(C(F)(F)F)c1)c1cccc2ccccc12 (stereo not shown) [CBK008674T]	71.8934%
O=C1N[C@]2(Cc3ccccc31)CN(Cc1ccccc1)C[C@H]2CO [CBK284743]	128.291%
O=C1NC2(CCC2)C(=O)N1Cc1nn(-c2ccccc2)c2c1CCC2 [CBK306383]	128.721%
Cc1cc(C(=O)Nc2cccc3cc[nH]c23)ccc1Cl [CBK160078]	147.644%
Cc1cc(NS(=O)(=O)c2csc3ccccc23)n(C)n1 [CBK067251]	138.924%
Cn1nc2c(cc1=O)CN(C(=O)c1ccoc1)CC2 [CBK304330]	115.182%
CC1(C)CC(N2CN(C3CC(C)(C)NC(C)(C)C3)CN(C3CC(C)(C)NC(C)(C)C3)C2)CC(C)(C)N1 [CBK261985]	107.203%
O=C(NCCc1c[nH]cn1)c1ccccc1-n1cccc1 [CBK161000]	121.32%
COc1nccnc1N1CCN(CCCC#N)CC1 [CBK084225]	105.813%
Cc1cc(C)nc(N2CCC(C3CC=CCN(CCc4ccccc4)C3=O)CC2)n1 (stereo not shown) [CBK285575]	98.0009%
O=C(O)CCc1ccc(-c2cccs2)n1-c1ccc(Cl)c(Cl)c1 [CBK264797]	129.912%
Cc1ccc(NC(=O)NC(=O)C2CCN(S(C)(=O)=O)CC2)cc1 [CBK034863]	100%
CCCCOc1ccc(-c2nnn(C(C)C(=O)O)n2)cc1 (stereo not shown) [CBK070540]	61.2591%
COc1ccc(CNC(=O)C2CCCN(S(=O)(=O)c3cccs3)C2)cc1 (stereo not shown) [CBK304628]	113.47%
COc1ccc(OC)c(NC(=O)c2ccc3nccnc3c2)c1 [CBK268997]	135.469%
CCc1ccc(Nc2nc(N)nc(CN3CCN(c4ccccn4)CC3)n2)cc1 [CBK270064]	93.6721%
COc1cccc(OC)c1OCCN1CCC(CNC(=O)Nc2cccc(C(F)(F)F)c2)CC1 [CBK051512T]	121.008%
CN1CC(c2ccccc2)C2(CCNCC2)C1 (stereo not shown) [CBK282225]	106.158%
O=C(c1cccnc1)N1CCN(S(=O)(=O)c2ccccc2[N+](=O)[O-])CC1 [CBK264227]	100%
CCOC(=O)c1c(NS(=O)(=O)Cc2ccccc2[N+](=O)[O-])sc2c1CCCC2 [CBK004651]	112.98%

SMILES	% of control remaining
COc1cc(CN2CCN(c3ccccn3)CC2)ccc1O [CBK261537]	98.5049%
O=C(C1CCC1)N1CCC(c2nnc(-c3ccsc3)o2)CC1 [CBK283405]	98.4131%
O=C(Nc1cccnc1)c1cnc(-c2ccc(Cl)cc2)c(-c2cccnc2)c1 [CBK037568]	98.6822%
CC1(C)C=Cc2cc(/C(N)=N/O)ccc2O1 [CBK006095]	118.517%
CN1CC(=O)N(CC(=O)N2CC=C(c3ccccc3)CC2)c2ccccc2C1=O [CBK294433]	133.467%
O=C(O)c1cc(C(=O)O)cc(N2C(=O)C3C4C=CC(C4)C3C2=O)c1 (stereo not shown) [CBK261193]	100.017%
CC(C)c1ccc(NC(=O)CSc2nnc(Cc3cccc4ccccc34)o2)cc1 [CBK267371]	129.946%
CN1C(=O)CC2(C1=O)C(=O)N(Cc1ccc3ccccc3n1)c1ccc(Cl)cc12 (stereo not shown) [CBK075494]	95.531%
O=[N+]([O-])c1ccc(CN2CCC(N3CCN(CCO)CC3)CC2)cc1 [CBK264621G]	118.977%
COCc1cc(C[C@@H]2C[C@H](NC(=O)C(C)(C)C)C2(C)C)no1 [CBK289251]	137.118%
CC(O)CNc1nccnc1-c1ccc(S(C)(=O)=O)cc1 (stereo not shown) [CBK037669]	113.167%
COCCN(Cc1cnn(C)c1)C(=O)c1nc2ccccn2c1F [CBK306892]	133.932%
COc1cc2c(cc1OC)C(C)N(S(=O)(=O)c1cn(C)cn1)CC2 (stereo not shown) [CBK057314]	134.928%
Cc1cc(N2CCCC(C(=O)N3CCOCC3)C2)nc(N)n1 (stereo not shown) [CBK305985]	120.39%
Cc1ccn(CCNC(=O)C2CCC(=O)N(CCc3ccccn3)C2)n1 (stereo not shown) [CBK306998]	76.6957%
O=C(CN1C(=O)c2ccccc2C1=O)N1CCN(Cc2ccc3c(c2)OCO3)CC1 [CBK074846]	93.3197%
CN(CCN1CCCC1)c1nccc(N2CCN[C@H]3CS(=O)(=O)C[C@H]32)n1 [CBK306692]	126.016%
COc1cccc(CCC(=O)n2ccn(-c3ccc(N(C)C)cc3)c2=O)c1 [CBK106609]	122.525%
CN1C(=O)c2ccccc2OCCCCC[C@H]2NCCC[C@H]21 [CBK292075]	111.571%
Cn1nc(C(C)(C)C)c2cc(C(=O)N3CCCc4occc4C3)cnc21 [CBK304713]	118.274%
COc1ccc(C(NC(=O)COc2c(Cl)cc(C(=O)O)cc2Cl)C(C)C)cc1 (stereo not shown) [CBK295344]	152.738%
CCn1nc(C)c(C2NC(=O)c3ccccc3N2)c1C (stereo not shown) [CBK288214]	118.939%
COc1ccc(CCNc2ncnc3sc4c(c23)CCCCC4)cc1OC [CBK074384]	110.979%
Cc1ccc(NS(=O)(=O)c2cccc(C(=O)NS(=O)(=O)c3ccc(F)cc3F)c2)cc1 [CBK297776]	152.596%
O=C(CCN1CCOCC1)NNC(=O)Nc1cccc(C(F)(F)F)c1 [CBK269017]	86.9436%
O=C(C1CCCC1)N1CCc2nc(-c3ccccc3)[nH]c(=O)c2C1 [CBK282331]	109.9%
CC(C)Oc1ccccc1-c1nnc(SCC(=O)O)[nH]1 [CBK262702]	121.184%

3 consecutive entries already listed, quoted:
SMILES	% of control remaining
COc1ccc(CCNc2ncnc3sc4c(c23)CCCCC4)cc1OC [CBK074384]	110.979%
Cc1ccc(NS(=O)(=O)c2cccc(C(=O)NS(=O)(=O)c3ccc(F)cc3F)c2)cc1 [CBK297776]	152.596%
O=C(CCN1CCOCC1)NNC(=O)Nc1cccc(C(F)(F)F)c1 [CBK269017]	86.9436%

Later entries.

SMILES	% of control remaining
Cc1cc(-c2nccnc2NCc2cccc(Cl)c2)cc(C)c1O [CBK036646]	117.334%
O=C(/C=C/c1ccccc1[N+](=O)[O-])NCCN1CCOCC1 [CBK265596]	100%
N#Cc1[nH]nnc1-c1ccc(OC(F)(F)F)cc1 [CBK017386]	125.622%
Oc1cccc(Sc2cc(C(F)(F)F)ccn2)c1 [CBK115273]	124.298%
Cc1ccc2c(c1)CN(C(=O)C1CC1C)CC1(CCN(C)CC1)O2 (stereo not shown) [CBK284833]	111.021%
CC1(CNC(=O)c2cc(-c3cccc(F)c3)no2)COC1 [CBK281751]	149.675%
CS(=O)(=O)Nc1ccc2c(O)c(C(=O)NCc3ccc(Cl)cc3)c(=O)[nH]c2c1 [CBK017559]	134.145%
CC(C)(C)OC(=O)N1CCCC1C1COc2ccccc2C1=O (stereo not shown) [CBK281579]	131.182%
N#CCCN(C(=O)NCCN1CCOCC1)C1CCCCC1 [CBK156357]	93.0366%
O=C(Nc1ncccc1Cl)c1ccc(F)cc1 [CBK288215]	116.745%
O=C(N/N=C/c1cccc(Oc2ccccc2)c1)c1ccncc1 [CBK261955]	119.583%
COCCOCCCC(=O)OCC1Cc2cc(F)ccc2O1 (stereo not shown) [CBK304886]	86.313%
CNS(=O)(=O)c1ccc(NC(=O)c2cc(-c3ccc4c(c3)OCO4)nc3ccccc23)cc1 [CBK267735]	134.152%
O=C(Cn1nc(-c2cc3c(s2)CCC3)oc1=O)NC1CC1 [CBK283800]	96.0988%
COc1ccc(N(CC(=O)Nc2c(F)cccc2F)S(=O)(=O)c2ccccc2)cc1 [CBK266883]	127.888%
O=C(CSc1nc2ccccc2n1Cc1ccccc1)N/N=C/c1ccco1 [CBK263174]	131.124%
Nc1nc2ccc(-c3nc4ccccc4o3)cc2s1 [CBK287846]	86.3396%
CCOC(=O)Cc1cc(O)nc(NC(=N)Nc2ccc(C)cc2C)n1 [CBK264986]	118.277%
CCOC(=O)c1cc(C(C)C)sc1NC(=O)C1C2C=CC(C2)C1C(=O)O (stereo not shown) [CBK265417]	114.119%
CN1CCN(NC(=O)COc2ccc(-c3ccccc3)cc2)CC1 [CBK268117]	89.2031%
COc1ccc(Cl)cc1NC(=O)C1CCCN1S(=O)(=O)c1ccc(F)cc1 (stereo not shown) [CBK069866]	101.668%
N#Cc1ccc(C(=O)NCC2(N3CCOCC3)CCSC2)cc1 (stereo not shown) [CBK305602]	129.056%
COc1ccc(NC(=O)NC(=O)c2ccc(Cl)cc2)c(OC)c1 [CBK269462]	163.561%
COc1ccc(Nc2cc(-c3ccc(CNC(=O)OC(C)(C)C)cc3)ncn2)c(OC)c1 [CBK090757]	147.428%
CCN1C(=O)CC2(C1=O)C(=O)N(CCCN(C)S(C)(=O)=O)c1ccccc12 (stereo not shown) [CBK075519]	143.951%
